This passage reports log2 fold change results from the supplement of paper PMC10849652.

Amino acid sequences for entries named in this document (tags omitted). A change or cut given only in a name is not applied to a line headed by its entry.
UniProt Q7Z388: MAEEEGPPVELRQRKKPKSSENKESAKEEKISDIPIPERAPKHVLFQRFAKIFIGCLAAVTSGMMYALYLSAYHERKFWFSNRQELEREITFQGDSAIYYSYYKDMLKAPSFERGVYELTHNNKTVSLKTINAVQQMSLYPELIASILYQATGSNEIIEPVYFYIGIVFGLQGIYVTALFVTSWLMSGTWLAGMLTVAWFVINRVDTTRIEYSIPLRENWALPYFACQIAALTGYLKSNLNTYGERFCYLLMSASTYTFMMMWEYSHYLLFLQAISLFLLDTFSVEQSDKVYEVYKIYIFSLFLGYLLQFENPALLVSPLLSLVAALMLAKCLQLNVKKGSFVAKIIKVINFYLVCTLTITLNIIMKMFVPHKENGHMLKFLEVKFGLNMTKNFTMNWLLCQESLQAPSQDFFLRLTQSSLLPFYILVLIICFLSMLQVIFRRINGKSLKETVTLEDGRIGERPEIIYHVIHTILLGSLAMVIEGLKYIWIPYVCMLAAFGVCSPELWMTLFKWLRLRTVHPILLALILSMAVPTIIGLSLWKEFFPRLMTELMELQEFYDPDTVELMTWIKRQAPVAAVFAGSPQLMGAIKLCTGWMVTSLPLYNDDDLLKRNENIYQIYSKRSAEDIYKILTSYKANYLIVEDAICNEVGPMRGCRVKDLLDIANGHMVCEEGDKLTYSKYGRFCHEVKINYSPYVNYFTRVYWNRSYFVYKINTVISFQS
UniProt O60739, whole entry, looked up: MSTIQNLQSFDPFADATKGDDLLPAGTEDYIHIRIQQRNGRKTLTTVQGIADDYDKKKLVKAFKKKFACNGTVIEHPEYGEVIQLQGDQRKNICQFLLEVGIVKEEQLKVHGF
UniProt Q92611: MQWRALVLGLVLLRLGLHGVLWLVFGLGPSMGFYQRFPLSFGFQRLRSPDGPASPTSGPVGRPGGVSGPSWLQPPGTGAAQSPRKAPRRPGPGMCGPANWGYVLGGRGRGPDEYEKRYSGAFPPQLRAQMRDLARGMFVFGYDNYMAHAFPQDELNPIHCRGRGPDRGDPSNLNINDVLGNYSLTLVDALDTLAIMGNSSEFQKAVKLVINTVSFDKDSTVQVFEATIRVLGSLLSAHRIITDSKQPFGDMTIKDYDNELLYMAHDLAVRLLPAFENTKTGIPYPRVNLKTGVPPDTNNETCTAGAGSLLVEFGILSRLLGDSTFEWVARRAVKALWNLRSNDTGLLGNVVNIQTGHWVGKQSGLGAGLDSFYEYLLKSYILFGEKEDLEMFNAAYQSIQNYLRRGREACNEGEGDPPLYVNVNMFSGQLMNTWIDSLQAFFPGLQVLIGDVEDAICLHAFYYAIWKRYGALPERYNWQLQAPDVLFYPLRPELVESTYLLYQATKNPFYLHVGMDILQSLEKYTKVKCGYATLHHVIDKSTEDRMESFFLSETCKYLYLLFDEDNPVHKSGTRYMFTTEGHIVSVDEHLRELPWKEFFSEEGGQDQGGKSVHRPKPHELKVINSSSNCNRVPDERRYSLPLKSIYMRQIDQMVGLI
UniProt Q9Y6G9, whole entry, looked up: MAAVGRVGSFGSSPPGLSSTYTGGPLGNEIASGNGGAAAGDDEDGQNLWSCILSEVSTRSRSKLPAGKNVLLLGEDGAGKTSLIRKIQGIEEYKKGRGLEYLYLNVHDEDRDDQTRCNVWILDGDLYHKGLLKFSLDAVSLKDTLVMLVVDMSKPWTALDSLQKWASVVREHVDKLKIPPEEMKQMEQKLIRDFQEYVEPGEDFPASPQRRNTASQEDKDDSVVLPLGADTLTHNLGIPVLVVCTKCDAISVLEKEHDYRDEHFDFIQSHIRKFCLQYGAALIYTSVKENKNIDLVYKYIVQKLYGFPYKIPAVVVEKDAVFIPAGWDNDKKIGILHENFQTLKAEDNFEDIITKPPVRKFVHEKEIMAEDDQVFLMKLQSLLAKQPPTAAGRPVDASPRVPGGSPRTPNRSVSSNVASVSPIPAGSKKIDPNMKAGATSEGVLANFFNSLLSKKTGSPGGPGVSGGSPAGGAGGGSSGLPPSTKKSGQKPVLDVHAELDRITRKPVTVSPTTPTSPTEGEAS
UniProt Q9UHF1: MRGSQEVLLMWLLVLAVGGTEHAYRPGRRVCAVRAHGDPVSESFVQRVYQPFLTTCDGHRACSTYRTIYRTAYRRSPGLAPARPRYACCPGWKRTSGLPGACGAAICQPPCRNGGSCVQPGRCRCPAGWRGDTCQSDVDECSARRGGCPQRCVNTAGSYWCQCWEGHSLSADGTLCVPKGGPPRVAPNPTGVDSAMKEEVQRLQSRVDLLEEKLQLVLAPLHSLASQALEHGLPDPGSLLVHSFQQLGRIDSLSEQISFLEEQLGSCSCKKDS
UniProt O14641: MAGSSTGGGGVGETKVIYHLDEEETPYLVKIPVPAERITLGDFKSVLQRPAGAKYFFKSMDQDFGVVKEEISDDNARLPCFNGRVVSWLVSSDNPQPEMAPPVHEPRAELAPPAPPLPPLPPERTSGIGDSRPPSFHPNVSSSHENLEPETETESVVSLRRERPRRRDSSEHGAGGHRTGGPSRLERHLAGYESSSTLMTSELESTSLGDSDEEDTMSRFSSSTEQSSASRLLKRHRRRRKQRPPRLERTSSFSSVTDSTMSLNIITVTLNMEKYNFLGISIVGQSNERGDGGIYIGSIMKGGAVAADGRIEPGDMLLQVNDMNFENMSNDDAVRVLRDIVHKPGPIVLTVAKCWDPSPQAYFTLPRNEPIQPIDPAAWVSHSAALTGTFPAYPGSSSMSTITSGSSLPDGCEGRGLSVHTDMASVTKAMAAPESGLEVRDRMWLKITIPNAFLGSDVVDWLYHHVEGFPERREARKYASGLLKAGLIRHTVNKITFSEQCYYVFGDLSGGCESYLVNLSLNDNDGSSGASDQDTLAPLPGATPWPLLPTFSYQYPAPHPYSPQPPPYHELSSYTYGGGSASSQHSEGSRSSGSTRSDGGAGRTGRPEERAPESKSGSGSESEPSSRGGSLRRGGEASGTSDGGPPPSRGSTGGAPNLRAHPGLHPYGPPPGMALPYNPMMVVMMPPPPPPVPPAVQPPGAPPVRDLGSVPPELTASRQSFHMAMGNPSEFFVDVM
UniProt Q86TI2: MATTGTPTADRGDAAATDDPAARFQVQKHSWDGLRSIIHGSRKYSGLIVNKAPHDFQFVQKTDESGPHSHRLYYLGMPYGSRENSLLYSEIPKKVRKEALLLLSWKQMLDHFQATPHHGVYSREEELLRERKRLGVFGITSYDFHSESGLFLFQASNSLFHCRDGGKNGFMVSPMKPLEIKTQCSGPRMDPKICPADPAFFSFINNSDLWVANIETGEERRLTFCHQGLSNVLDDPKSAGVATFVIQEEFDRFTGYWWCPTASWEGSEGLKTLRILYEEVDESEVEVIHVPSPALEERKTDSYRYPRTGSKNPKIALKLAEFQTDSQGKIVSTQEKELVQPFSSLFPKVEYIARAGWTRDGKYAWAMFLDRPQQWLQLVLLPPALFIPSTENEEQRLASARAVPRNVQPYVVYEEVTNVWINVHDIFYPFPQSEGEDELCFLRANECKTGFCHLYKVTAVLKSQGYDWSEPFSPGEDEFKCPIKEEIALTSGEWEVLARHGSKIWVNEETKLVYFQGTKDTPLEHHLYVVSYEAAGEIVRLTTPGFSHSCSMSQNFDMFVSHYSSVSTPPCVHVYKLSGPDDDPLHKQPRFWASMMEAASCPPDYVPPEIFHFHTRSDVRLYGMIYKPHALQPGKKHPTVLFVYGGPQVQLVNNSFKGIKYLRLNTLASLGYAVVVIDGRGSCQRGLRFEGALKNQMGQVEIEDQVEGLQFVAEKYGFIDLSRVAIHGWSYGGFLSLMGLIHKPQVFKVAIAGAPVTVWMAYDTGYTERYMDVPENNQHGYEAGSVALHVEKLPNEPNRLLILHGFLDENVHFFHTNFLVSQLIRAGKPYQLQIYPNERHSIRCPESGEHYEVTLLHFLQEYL
UniProt P24534: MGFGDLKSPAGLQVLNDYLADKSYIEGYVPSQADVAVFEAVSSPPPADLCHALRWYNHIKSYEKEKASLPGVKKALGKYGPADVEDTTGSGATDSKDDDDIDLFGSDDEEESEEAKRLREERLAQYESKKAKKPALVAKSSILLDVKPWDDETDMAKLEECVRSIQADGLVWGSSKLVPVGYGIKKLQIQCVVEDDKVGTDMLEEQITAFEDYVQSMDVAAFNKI
UniProt Q9BVJ7: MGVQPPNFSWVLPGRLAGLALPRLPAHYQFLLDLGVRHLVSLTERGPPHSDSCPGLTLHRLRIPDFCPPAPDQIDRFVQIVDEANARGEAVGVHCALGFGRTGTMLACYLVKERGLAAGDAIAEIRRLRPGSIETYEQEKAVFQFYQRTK
UniProt Q92785, whole entry, looked up: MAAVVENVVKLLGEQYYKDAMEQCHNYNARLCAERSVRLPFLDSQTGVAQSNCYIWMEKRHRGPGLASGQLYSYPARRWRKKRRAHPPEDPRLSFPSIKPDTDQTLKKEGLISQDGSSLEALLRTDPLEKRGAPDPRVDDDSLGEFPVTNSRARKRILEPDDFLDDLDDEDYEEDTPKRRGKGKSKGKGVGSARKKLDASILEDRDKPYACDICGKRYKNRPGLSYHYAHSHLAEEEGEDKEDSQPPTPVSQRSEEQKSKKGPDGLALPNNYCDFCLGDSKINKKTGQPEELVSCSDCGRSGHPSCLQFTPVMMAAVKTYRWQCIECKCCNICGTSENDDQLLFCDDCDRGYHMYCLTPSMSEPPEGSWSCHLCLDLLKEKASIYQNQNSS
UniProt O77932: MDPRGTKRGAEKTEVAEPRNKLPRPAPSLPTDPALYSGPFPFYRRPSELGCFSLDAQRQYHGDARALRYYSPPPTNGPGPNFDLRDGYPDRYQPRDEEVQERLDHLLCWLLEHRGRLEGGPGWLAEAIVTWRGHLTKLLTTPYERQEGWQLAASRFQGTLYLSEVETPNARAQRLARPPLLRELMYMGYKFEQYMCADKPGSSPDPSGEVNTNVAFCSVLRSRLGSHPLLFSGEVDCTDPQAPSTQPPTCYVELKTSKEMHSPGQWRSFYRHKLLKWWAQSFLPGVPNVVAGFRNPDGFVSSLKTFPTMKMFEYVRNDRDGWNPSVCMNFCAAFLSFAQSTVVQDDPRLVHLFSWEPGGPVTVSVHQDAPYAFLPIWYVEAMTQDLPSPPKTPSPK
UniProt O75521: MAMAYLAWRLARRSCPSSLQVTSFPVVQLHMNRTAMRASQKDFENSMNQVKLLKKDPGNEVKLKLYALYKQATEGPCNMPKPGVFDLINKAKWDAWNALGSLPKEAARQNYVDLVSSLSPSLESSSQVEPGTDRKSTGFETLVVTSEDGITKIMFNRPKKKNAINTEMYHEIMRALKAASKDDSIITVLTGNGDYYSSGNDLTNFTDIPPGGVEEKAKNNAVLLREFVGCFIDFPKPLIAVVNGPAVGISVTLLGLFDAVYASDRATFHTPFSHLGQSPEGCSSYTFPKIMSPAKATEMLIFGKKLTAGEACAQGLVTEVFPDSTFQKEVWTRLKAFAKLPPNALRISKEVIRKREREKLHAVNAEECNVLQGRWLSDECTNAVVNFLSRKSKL
UniProt O43237, whole entry, looked up: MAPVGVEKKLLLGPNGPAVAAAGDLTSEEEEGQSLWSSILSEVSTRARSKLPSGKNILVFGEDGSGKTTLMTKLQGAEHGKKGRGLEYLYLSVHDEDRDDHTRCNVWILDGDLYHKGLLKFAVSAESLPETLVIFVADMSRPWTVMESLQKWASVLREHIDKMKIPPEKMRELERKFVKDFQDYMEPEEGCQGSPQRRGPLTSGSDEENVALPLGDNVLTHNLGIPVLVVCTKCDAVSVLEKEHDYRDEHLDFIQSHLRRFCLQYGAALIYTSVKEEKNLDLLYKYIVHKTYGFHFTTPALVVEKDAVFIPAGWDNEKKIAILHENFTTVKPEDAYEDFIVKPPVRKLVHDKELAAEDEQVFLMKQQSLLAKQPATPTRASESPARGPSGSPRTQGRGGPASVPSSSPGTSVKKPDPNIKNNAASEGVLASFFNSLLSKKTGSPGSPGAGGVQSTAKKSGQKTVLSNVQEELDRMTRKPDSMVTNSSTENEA
UniProt P57772: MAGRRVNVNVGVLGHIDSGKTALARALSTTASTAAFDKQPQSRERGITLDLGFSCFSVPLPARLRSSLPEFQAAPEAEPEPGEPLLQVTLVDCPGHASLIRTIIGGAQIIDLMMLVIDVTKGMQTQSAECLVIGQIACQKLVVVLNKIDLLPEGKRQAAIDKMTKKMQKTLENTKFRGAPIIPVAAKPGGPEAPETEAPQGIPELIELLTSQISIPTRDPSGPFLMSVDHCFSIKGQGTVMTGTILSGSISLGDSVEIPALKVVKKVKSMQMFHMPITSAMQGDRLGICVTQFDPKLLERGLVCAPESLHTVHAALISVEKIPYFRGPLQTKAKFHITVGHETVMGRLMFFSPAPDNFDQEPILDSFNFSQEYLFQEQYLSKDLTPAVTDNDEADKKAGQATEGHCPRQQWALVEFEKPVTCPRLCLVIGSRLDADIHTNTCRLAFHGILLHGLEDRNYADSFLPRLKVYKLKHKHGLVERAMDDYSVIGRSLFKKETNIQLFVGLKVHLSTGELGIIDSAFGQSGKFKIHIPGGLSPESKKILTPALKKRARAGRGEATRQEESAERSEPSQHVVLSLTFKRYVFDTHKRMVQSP

Holding throughout (assay): log2 fold change, soluble protein after heating vs DMSO (PISA); higher = thermal stabilisation; K562 lysate, 10 uM; active = over 0.2 and 3.5 SD of the protein, either way, in both replicates (recomputed)
Compound in assay [1]: NCC(=O)Nc1ccc(-n2nc(C(F)(F)F)cc2-c2ccc3c(ccc4ccccc43)c2)cc1
The essentials: (§1)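 Values give the log-two fold change in thermal stability against solvent controls, from duplicates. Crude K562 extract at 1 mg/mL protein, made by dounce homogenisation in PBS pH 7.4 with 1 mM MgCl2, was treated with 10 μM compound for 30 min. After 3 min heating across 48°C-58°C, aliquots were pooled, adjusted to 0.5% NP-40 at 4°C and centrifuged at 21,000xg for 90 min. The supernatant was measured by TMTpro 16plex LC-MS/MS with channel sums equalised.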

Compound in the next assay: O=C(CCCCCCC(=O)Nc1ccccc1)NO [vorinostat]
The essentials: as §1

Compound in another assay: O=C(O)c1ccc2c(c1)nc(Nc1cccc(Cl)c1)c1ccncc12 [silmitasertib]
The essentials:
as §1

Compound in assay [2]: O=C1NC(=O)C(c2cnc3ccccn23)=C1c1cn2c3c(cc(F)cc13)CN(C(=O)N1CCCCC1)CC2
The essentials: as §1

Compound in a further assay: c1cn2cc(-c3ccc4cn[nH]c4c3)nc(Nc3ccc(N4CCOCC4)cc3)c2n1 [entospletinib]
A digest of the protocol:
as §1

The list shows a part of the results.

With DPY19L4 (UniProt Q7Z388), the log2 fold change was inactive: 0.067 in assay [1]; inactive: -0.019 with vorinostat; inactive: -0.143 in the assay with silmitasertib; inactive: -0.019 in assay [2]; inactive: 0.092 with entospletinib.

As for E4F1 (UniProt Q66K89), the log2 fold change in assay [1] was inactive: 0.042; with vorinostat, inactive: 0.069; with silmitasertib, inactive: 0.097; in assay [2] it was inactive: 0.177.

For the target EIF1B (UniProt O60739), the log2 fold change in assay [1] was inactive: 0.135; in the assay with vorinostat, inactive: 0.066; with silmitasertib, inactive: 0.085; in assay [2], inactive: 0.313; in the assay with entospletinib, inactive: -0.146.

Take EDEM1 (UniProt Q92611): the log2 fold change was inactive: 0.004 in assay [1]; inactive: 0.041 with vorinostat; inactive: -0.016 with silmitasertib; inactive: 0.018 in assay [2]; inactive: 0.063 with entospletinib.

Turning to EFNB1 (UniProt P98172), the log2 fold change in assay [1] was inactive: -0.077; in the assay with vorinostat it was inactive: 0.145; with silmitasertib it was inactive: -0.047; in assay [2], inactive: -0.048; with entospletinib it was inactive: -0.038.

DYNC1LI1 (UniProt Q9Y6G9): the log2 fold change in assay [1] is inactive: 0.006; with vorinostat, inactive: -0.025; with silmitasertib, inactive: 0.014; in assay [2], inactive: 0; with entospletinib, inactive: 0.017.

For DYNLL2 (UniProt Q96FJ2), the log2 fold change in assay [1] was inactive: -0.062; with vorinostat, inactive: 0.075; with silmitasertib, inactive: 0.072; in assay [2] it was inactive: 0.037; in the assay with entospletinib, inactive: -0.028.

Consider EGFL7 (UniProt Q9UHF1), for which the log2 fold change in assay [1] is inactive: -0.189.

Consider DVL2 (UniProt O14641), for which the log2 fold change in assay [1] is inactive: -0.056; with vorinostat it was active: 0.33; in the assay with silmitasertib, inactive: 0.049; in assay [2], inactive: 0.078; with entospletinib, inactive: -0.015.

For the target E2F3 (UniProt O00716), the log2 fold change in assay [1] is inactive: -0.076; with vorinostat it was inactive: 0.099; with silmitasertib it was inactive: 0.004; in assay [2], inactive: 0.015; with entospletinib, inactive: 0.062.

In the case of DPP9 isoform 2 (UniProt Q86TI2), the log2 fold change in assay [1] was inactive: 0.004; with vorinostat, inactive: -0.09; with silmitasertib, inactive: -0.002; in assay [2] it was inactive: 0; with entospletinib, inactive: 0.013.

As for EFTUD2 (UniProt Q15029), the log2 fold change is inactive: 0.015 in assay [1]; inactive: 0.097 with vorinostat; inactive: -0.021 with silmitasertib; inactive: -0.015 in assay [2]; inactive: 0.009 with entospletinib.

Regarding DTX3L (UniProt Q8TDB6), the log2 fold change in assay [1] is inactive: 0.002; with vorinostat, inactive: -0.067; in the assay with silmitasertib, inactive: -0.017; in assay [2] it was inactive: -0.039; with entospletinib, inactive: 0.088.

Take DTD1 (UniProt Q8TEA8): the log2 fold change was inactive: -0.055 in assay [1]; inactive: 0.059 in the assay with vorinostat; inactive: 0 with silmitasertib; inactive: -0.08 in assay [2]; inactive: 0.011 with entospletinib.

In the case of EEF1B2 (UniProt P24534), the log2 fold change is inactive: 0.004 in assay [1]; inactive: 0.075 with vorinostat; inactive: 0.004 in the assay with silmitasertib; inactive: -0.021 in assay [2]; inactive: 0.005 with entospletinib.

Regarding EEF2KMT (UniProt Q96G04), the log2 fold change in assay [1] was inactive: -0.315; with vorinostat, inactive: -0.059; in the assay with silmitasertib it was inactive: -0.077; in assay [2], inactive: 0.126; with entospletinib, inactive: 0.029.

Turning to DUSP23 (UniProt Q9BVJ7), the log2 fold change in assay [1] was inactive: -0.094; in the assay with vorinostat, inactive: 0.016; with silmitasertib it was inactive: 0.038; in assay [2], inactive: -0.021; with entospletinib, inactive: -0.087.

DYNC1I2 isoform 2 (UniProt Q13409): the log2 fold change was inactive: 0.138 in assay [1]; inactive: 0.07 in the assay with vorinostat; inactive: 0.008 with silmitasertib; inactive: 0.054 in assay [2]; inactive: 0.039 with entospletinib.

Regarding DYNC1I2 isoform 5 (UniProt Q13409), the log2 fold change in assay [1] is inactive: 0.009; with vorinostat, inactive: 0.126; in the assay with silmitasertib, inactive: 0.03; in assay [2] it was inactive: -0.005; with entospletinib, inactive: -0.007.

As for EDARADD (UniProt Q8WWZ3), the log2 fold change in assay [1] is inactive: 0.022; with vorinostat it was inactive: -0.168; in the assay with silmitasertib, inactive: 0.02; in assay [2], inactive: -0.05; in the assay with entospletinib it was inactive: -0.057.

Turning to DPF2 (UniProt Q92785), the log2 fold change was inactive: 0.015 in assay [1]; inactive: 0.041 with vorinostat; inactive: -0.042 in the assay with silmitasertib; inactive: -0.019 in assay [2]; inactive: -0.059 in the assay with entospletinib.

As for DXO (UniProt O77932), the log2 fold change in assay [1] is inactive: 0.026; with vorinostat, inactive: -0.044; with silmitasertib, inactive: -0.028; in assay [2] it was inactive: 0.083; in the assay with entospletinib it was inactive: -0.001.

With ECI2 (UniProt O75521), the log2 fold change in assay [1] is inactive: 0.08; with vorinostat, inactive: 0.146; with silmitasertib, inactive: 0.022; in assay [2], active: 0.284; with entospletinib, inactive: -0.033.

Take DYNC1LI2 (UniProt O43237): the log2 fold change in assay [1] was inactive: 0.037; with vorinostat, inactive: 0.097; in the assay with silmitasertib, inactive: -0.071; in assay [2], inactive: 0.031; in the assay with entospletinib, inactive: -0.032.

With EEFSEC (UniProt P57772), the log2 fold change is inactive: -0.022 in assay [1]; active: -0.325 with vorinostat; inactive: 0.052 in the assay with silmitasertib; inactive: -0.012 in assay [2]; inactive: -0.009 with entospletinib.
